Reference: the supplement of paper PMC7666118
Some of the results follow.

Sequences of proteins named here, by UniProt entry; tags and fusion partners are left off. A change or cut given only in a name is not applied to a line headed by its entry.
UniProt A2VDF0: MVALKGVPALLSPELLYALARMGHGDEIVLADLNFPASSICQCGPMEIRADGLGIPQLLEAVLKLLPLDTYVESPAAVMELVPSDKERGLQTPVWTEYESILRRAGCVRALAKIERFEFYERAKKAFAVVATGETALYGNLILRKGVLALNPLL
UniProt O43521, whole entry, looked up: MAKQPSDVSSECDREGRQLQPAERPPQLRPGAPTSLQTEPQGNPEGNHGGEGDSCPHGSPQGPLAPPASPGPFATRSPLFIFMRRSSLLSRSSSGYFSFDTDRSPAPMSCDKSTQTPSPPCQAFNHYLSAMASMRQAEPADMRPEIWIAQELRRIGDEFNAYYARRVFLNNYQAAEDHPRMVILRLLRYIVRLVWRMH
UniProt Q93084: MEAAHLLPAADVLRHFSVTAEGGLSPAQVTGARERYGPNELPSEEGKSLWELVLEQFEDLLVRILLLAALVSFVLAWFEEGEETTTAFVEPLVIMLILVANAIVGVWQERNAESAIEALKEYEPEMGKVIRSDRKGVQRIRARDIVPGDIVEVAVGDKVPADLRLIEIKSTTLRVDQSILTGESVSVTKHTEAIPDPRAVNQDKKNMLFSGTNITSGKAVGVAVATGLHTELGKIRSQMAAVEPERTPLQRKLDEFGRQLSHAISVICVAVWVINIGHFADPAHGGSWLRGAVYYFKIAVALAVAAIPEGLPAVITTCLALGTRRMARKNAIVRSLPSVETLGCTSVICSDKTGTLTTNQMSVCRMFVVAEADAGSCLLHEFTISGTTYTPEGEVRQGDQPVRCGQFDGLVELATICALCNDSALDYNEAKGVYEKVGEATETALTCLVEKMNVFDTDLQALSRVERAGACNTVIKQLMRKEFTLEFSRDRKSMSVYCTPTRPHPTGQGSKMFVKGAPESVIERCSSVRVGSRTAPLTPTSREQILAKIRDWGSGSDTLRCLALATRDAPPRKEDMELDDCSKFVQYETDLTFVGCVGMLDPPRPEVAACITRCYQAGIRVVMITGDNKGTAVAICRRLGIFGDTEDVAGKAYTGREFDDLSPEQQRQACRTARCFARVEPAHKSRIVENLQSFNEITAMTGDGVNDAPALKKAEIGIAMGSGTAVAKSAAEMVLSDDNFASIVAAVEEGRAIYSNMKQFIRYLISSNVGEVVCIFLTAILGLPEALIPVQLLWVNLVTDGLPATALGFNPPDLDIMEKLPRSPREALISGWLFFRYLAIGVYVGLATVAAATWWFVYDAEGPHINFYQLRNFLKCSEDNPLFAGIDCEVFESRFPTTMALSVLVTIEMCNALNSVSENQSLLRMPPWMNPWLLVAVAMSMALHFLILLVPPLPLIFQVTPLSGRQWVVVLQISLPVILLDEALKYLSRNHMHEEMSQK
UniProt Q9HD20: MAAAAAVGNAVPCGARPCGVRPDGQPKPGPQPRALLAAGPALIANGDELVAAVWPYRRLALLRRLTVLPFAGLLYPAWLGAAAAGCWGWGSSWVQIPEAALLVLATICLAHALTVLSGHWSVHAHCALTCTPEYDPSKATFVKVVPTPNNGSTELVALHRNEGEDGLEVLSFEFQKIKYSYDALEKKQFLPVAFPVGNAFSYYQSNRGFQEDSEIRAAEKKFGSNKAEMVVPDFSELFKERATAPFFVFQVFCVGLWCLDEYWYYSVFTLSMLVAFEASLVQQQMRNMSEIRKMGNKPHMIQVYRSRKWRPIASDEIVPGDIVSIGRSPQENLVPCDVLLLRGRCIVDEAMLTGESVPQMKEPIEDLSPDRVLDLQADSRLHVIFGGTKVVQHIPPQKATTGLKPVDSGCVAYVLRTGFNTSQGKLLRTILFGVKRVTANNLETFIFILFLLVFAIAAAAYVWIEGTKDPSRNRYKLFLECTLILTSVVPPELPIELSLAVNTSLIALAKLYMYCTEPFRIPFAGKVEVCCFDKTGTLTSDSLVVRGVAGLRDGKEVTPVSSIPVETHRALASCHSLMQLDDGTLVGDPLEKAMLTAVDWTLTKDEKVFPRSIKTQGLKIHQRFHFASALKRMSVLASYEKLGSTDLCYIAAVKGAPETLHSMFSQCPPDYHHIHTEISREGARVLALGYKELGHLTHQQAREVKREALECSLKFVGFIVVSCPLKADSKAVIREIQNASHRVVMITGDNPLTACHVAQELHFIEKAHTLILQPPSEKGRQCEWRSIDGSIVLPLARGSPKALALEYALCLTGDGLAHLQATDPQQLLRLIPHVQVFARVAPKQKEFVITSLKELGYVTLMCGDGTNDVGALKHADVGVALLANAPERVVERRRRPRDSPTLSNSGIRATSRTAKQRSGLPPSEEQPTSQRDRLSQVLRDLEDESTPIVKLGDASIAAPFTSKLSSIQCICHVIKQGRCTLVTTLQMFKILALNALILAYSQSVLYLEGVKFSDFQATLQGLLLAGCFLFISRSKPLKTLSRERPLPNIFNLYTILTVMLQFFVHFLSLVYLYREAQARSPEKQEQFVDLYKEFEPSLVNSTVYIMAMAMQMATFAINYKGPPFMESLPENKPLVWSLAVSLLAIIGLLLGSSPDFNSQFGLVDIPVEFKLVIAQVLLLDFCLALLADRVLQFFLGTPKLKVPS
UniProt Q70Z53: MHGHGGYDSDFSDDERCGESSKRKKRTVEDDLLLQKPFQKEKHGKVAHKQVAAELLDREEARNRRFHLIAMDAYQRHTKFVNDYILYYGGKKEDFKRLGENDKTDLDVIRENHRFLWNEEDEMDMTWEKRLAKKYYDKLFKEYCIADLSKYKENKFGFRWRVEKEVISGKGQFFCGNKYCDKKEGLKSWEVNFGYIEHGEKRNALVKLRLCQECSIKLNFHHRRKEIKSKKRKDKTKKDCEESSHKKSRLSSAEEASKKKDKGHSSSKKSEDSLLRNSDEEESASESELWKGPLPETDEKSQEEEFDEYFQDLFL
UniProt P21281, whole entry: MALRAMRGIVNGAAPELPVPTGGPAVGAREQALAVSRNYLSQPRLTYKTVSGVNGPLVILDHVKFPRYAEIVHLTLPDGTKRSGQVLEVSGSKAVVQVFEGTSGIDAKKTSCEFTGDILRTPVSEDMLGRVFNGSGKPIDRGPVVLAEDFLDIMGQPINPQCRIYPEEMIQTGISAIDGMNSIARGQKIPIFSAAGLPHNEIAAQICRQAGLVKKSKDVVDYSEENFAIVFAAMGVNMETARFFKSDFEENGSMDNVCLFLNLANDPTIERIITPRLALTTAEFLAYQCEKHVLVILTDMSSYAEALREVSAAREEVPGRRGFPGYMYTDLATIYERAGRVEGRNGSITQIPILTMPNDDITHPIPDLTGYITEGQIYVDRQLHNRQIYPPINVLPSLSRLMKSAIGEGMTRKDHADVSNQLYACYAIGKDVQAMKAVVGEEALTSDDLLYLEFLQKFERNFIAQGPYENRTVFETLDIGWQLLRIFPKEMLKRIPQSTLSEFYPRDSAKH
UniProt Q86SX3: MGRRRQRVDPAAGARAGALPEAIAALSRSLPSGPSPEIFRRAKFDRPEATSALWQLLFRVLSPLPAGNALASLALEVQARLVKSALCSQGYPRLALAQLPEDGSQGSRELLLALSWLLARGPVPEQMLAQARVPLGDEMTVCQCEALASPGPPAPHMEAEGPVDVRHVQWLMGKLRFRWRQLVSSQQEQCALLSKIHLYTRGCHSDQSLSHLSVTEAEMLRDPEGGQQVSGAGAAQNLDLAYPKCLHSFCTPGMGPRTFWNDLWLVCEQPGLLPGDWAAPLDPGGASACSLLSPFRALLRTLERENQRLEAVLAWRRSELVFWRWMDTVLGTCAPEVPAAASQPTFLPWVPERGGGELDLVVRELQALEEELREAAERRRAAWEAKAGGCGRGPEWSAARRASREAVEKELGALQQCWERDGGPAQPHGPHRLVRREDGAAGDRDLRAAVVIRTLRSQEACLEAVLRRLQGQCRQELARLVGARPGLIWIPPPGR
UniProt Q8N999, whole entry: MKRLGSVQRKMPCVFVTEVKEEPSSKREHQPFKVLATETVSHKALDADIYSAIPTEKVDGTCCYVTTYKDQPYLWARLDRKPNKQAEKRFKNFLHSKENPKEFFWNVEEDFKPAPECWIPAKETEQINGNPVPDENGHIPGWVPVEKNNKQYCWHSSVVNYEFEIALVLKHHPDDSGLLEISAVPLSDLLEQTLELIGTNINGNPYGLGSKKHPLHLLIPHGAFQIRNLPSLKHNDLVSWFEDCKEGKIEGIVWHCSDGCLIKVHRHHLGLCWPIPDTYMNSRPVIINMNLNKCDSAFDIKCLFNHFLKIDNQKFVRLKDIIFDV
UniProt Q9NVM9, whole entry: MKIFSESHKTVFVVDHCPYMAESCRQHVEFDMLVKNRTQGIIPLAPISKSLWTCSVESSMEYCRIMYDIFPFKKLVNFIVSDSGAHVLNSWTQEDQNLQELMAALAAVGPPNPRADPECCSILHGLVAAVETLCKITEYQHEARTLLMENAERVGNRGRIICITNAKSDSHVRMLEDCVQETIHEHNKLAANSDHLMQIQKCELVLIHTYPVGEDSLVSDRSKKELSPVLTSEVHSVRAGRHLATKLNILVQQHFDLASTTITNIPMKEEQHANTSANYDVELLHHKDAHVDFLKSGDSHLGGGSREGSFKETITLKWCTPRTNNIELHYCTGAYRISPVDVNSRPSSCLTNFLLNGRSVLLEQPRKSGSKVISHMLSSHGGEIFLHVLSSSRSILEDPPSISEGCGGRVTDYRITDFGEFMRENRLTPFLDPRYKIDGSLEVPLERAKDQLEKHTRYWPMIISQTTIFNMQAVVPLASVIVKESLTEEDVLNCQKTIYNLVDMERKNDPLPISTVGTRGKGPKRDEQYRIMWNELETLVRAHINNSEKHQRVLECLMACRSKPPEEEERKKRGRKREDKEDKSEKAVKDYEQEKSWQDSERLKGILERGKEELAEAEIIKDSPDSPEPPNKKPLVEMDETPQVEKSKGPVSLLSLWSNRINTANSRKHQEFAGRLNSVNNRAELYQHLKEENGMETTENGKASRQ
UniProt O75348, whole entry: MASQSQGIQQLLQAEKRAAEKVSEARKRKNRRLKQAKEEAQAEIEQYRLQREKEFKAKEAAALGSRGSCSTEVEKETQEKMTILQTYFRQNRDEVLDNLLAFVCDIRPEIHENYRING
UniProt Q9BRT3: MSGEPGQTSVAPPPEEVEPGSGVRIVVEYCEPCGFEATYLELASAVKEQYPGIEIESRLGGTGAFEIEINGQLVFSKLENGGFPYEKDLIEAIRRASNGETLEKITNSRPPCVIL
UniProt Q9HCU9: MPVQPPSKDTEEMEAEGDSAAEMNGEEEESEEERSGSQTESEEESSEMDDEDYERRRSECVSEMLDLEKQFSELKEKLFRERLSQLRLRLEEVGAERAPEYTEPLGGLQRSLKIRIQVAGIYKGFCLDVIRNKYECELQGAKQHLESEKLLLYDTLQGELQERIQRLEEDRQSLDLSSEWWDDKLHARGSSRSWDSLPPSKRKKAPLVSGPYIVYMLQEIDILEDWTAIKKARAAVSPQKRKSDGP
UniProt P41223: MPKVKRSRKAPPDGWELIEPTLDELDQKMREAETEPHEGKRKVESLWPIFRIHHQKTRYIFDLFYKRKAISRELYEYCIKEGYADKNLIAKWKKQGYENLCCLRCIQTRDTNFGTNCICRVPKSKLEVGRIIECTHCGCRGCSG
UniProt Q9BQA9: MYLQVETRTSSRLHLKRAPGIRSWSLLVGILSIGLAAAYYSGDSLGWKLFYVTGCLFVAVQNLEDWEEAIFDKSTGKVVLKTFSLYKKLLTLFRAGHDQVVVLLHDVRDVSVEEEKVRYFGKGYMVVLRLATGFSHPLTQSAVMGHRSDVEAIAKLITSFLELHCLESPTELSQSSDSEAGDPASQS
UniProt P51572: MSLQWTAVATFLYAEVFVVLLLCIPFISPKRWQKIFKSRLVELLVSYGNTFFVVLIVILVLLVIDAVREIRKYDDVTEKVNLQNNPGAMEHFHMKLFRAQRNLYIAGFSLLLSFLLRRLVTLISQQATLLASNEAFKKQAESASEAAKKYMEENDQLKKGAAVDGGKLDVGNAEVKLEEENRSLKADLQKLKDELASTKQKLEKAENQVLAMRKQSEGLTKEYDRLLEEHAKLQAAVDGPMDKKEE
UniProt Q12981: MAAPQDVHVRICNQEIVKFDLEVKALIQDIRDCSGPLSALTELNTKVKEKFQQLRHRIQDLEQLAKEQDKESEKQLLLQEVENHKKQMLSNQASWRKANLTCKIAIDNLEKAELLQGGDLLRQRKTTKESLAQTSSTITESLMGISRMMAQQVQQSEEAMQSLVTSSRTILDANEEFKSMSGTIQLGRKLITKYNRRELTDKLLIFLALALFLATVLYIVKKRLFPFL
UniProt Q9H8W3: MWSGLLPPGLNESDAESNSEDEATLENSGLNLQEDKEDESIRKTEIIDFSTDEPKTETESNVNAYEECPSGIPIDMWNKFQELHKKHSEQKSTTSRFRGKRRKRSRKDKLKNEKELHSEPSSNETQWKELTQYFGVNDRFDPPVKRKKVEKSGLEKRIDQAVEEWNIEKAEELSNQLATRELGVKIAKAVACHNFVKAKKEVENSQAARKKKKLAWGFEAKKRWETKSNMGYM
UniProt Q9BQ61: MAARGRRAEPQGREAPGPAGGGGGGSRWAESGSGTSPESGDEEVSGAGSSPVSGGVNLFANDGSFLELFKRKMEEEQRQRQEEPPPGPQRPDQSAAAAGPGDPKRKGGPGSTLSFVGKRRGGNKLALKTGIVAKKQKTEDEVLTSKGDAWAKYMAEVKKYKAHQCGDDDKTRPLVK

compound: COc1ccc(Cn2ccc3cc(C)c(C(=O)NO)cc32)cc1; experiment: dose-dependent thermal stabilisation call (2D-TPP, DLPTP, 10% FDR) (binary (1 = stabilised)); higher = stabilised by the compound; conditions: system: HL-60 intact cells; concentration range 0.04-10 µM
Description: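 2D thermal proteome profiling in intact HL-60 cells treated with BRD-3811 (0, 0.04, 0.29, 2, 10 uM) for 90 min at 37 C, then heated 3 min at one of 12 temperatures (42-63.9 C). Soluble protein was quantified by TMT10 MS. The value is the DLPTP call of the paper: dose-dependent thermal stabilisation over all temperatures at 10% FDR (F-test of a dose-response against a flat model); one experiment, one call per tested protein.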

Row | Target | dose-dependent thermal stabilisation call
1 | C10ORF125 (UniProt A2VDF0) | inactive: 0
2 | BICD2 (UniProt Q8TD16) | inactive: 0
3 | BPGM (UniProt P07738) | inactive: 0
4 | BCR (UniProt P11274) | inactive: 0
5 | BCL2L11 (UniProt O43521) | inactive: 0
6 | ATP2A3 (UniProt Q93084) | inactive: 0
7 | ATP13A1 (UniProt Q9HD20) | inactive: 0
8 | C10ORF4 (UniProt Q70Z53) | inactive: 0
9 | ATP8A1 (UniProt Q9Y2Q0) | inactive: 0
10 | ATP6V1B2 (UniProt P21281) | inactive: 0
11 | C19ORF25 (UniProt Q9UFG5) | inactive: 0
12 | ATRN (UniProt O75882) | inactive: 0
13 | C10ORF54 (UniProt Q9H7M9) | inactive: 0
14 | C14ORF80 (UniProt Q86SX3) | inactive: 0
15 | ATP6 (UniProt P00846) | inactive: 0
16 | C19ORF29 (UniProt Q8WUQ7) | inactive: 0
17 | C12ORF29 (UniProt Q8N999) | inactive: 0
18 | C12ORF11 (UniProt Q9NVM9) | inactive: 0
19 | ATP6V1G1 (UniProt O75348) | inactive: 0
20 | UniProt B4E3W1_HUMAN | inactive: 0

Some of the entries so far, tab-delimited:
Row	Target	dose-dependent thermal stabilisation call
1	C10ORF125 (UniProt A2VDF0)	inactive: 0
4	BCR (UniProt P11274)	inactive: 0
5	BCL2L11 (UniProt O43521)	inactive: 0
7	ATP13A1 (UniProt Q9HD20)	inactive: 0
9	ATP8A1 (UniProt Q9Y2Q0)	inactive: 0
10	ATP6V1B2 (UniProt P21281)	inactive: 0
12	ATRN (UniProt O75882)	inactive: 0
13	C10ORF54 (UniProt Q9H7M9)	inactive: 0
14	C14ORF80 (UniProt Q86SX3)	inactive: 0

Next results follow:

Row | Target | dose-dependent thermal stabilisation call
21 | C17ORF37 (UniProt Q9BRT3) | inactive: 0
22 | BAT2 (UniProt P48634) | inactive: 0
23 | BRMS1 (UniProt Q9HCU9) | inactive: 0
24 | C14ORF166 (UniProt Q9Y224) | inactive: 0
25 | C11ORF2 | inactive: 0
26 | BUD31 (UniProt P41223) | inactive: 0
27 | Ataxin-10 | inactive: 0
28 | C17ORF62 (UniProt Q9BQA9) | inactive: 0
29 | BCAP31 (UniProt P51572) | inactive: 0
30 | ATXN2L (UniProt Q8WWM7) | inactive: 0
31 | C16ORF53 (UniProt Q9BTK6) | inactive: 0
32 | ATP6V1C1 (UniProt P21283) | inactive: 0
33 | C13ORF3 (UniProt Q8IX90) | inactive: 0
34 | B3GNT2 (UniProt Q9NY97) | inactive: 0
35 | BCL9 (UniProt O00512) | inactive: 0
36 | BNIP1 (UniProt Q12981) | inactive: 0
37 | C16ORF42 (UniProt Q9UJK0) | inactive: 0
38 | BRD4 (UniProt O60885) | inactive: 0
39 | C10ORF84 (UniProt Q9H8W3) | inactive: 0
40 | C19ORF43 (UniProt Q9BQ61) | inactive: 0
